Consider 1 compound from US9707126B2, “Systems and methods for corneal cross-linking with pulsed light” (Avedro, Inc., priority 2009, dated 2017).

The data set has as its system porcine corneal flap. Briefly: Dissolved oxygen below corneal flap saturated with Riboflavin during UVA irradiation (O2 sensor). How it is done:
FIG. 2A illustrates a graph of depletion and gradual replenishment curve of dissolved oxygen below a 100 μm thick porcine corneal flap, saturated with 0.1% Riboflavin during 3 mW/cm^2 UVA irradiation at 25° C. The oxygen concentration (mg/L) fell to zero at about 15 seconds and gradually started to increase after approximately 10 minutes, getting back to approximately one-tenth its starting value after 30 minutes.
FIG. 2B illustrates a graph of oxygen recovery under a 100 μm thick corneal flap. The corneal flap was saturated with 0.1% Riboflavin during 30 mW/cm^2 UVA irradiation. The irradiation was pulsed at a 3 second on/3 seconds off cycle. Riboflavin drops were added to the cornea every 90 seconds. In this example, it took about 3 minutes for the oxygen concentration to gradually start increasing and about 6 minutes for the oxygen concentration to increase to 0.1 mg/L.
In a corroborating experiment, porcine eyes were de-epithelialized and placed in the 0.1% Riboflavin solution for 20 minutes. Eyes were removed from solution and physiological IOP was applied. A flap was cut using a femto second laser and an O2 sensor was placed under the flap. UVA illumination was administered as indicated and Riboflavin drops were applied every 90 seconds for the duration of the dose delivered. After cross-linking the flap using the pulsed light dosing, the flap was removed and tested mechanically as described above.

Where [1] appears, read: 100 μm flap, 0.1% Riboflavin, 30 mW/cm^2 UVA pulsed 3 seconds on/3 seconds off, drops every 90 seconds.
[2] abbreviates: 100 μm porcine corneal flap, 0.1% Riboflavin, 3 mW/cm^2 UVA CW, 25° C.

With `Cc1cc2nc3c(=O)[nH]c(=O)nc-3n(C[C@H](O)[C@H](O)[C@H](O)CO)c2cc1C` [Riboflavin], under setting [1], the “time for the oxygen concentration to increase to 0.1 mg/L” value was “about 6 minutes” and the “time for the oxygen concentration to start increasing” value was “about 3 minutes”. In addition, under setting [2], the “time after which oxygen concentration started to increase” value is “approximately 10 minutes” and the “time at which oxygen concentration fell to zero” value is “about 15 seconds”. Besides, under “after 30 minutes, 0.1% Riboflavin, 3 mW/cm^2 UVA CW, 25° C.”, the “oxygen concentration relative to its starting value” was “approximately one-tenth”. Moreover, the “time within which oxygen concentration in the cornea depletes” value (irradiance of 3 mW/cm^2) lay within 10 to 15 s. In addition, under “irradiance of 30 mW/cm^2”, the “time within which oxygen concentration in the cornea depletes” value lay in the range of 3 to 5 s.
